According to patent publication US12703851B2, “Cell culture methods” (The University of Massachusetts, priority 2019, dated 2026):
Several values for one entry are separate records, joined by “and”; a condition that tells them apart may be missing. Identical values can stand only once. Some results were stated once for a whole list of compounds, not compound by compound. Some compounds share one range, which may span the group rather than tell each member.

Columns and labels:
[1] = system: CHO-K1 cell line; assay: Fed-batch spiking test, IgG titer by HPLC with Protein A column; assay type: cell-based, Chinese hamster; conditions: harvest (Day 14) titer
[2] = system: CHO-K1 cell line; assay: Fed-batch spiking test, viable cell density; assay type: cell-based, Chinese hamster; conditions: Day 9, fed-batch, spiked at end-of-culture concentration, versus control batch

Row | Compound | titer (productivity) drop compared to the control [1] | VCD drop at the peak VCD [2]
1 | Nc1ccn([C@@H]2O[C@H](COP(=O)(O)O)[C@@H](O)[C@H]2O)c(=O)n1 [CMP, cytidine-5′-monophosphate] | > 30% and 30-40% | 40-50%
2 | O=C(O)c1c[nH]c2ccccc12 [ICA, indole-3-carboxylic acid, reference compound] | > 30% and 30-40% | 40-50%
3 | CC(C)CC(O)C(=O)O (stereo not drawn) [HICA, α-hydroxyisocaproic acid] | > 30% and 30-40% | 40-50%
